From PubChem BioAssay AID662 (National Center for Advancing Translational Sciences (NCATS), 2007)
Some of the results follow. The main result of the screen is listed elsewhere. These columns were measured beside it and carry no call. Most of these compounds were active or inconclusive in the main read-out, so they are no random draw. Potencies come from curve fits of mixed quality, noted in brackets.

Assay: Cell signaling CRE-BLA (Fsk stim)
Conditions: CHO CRE-bla reporter (cAMP response element driving beta-lactamase), forskolin EC10, beta-lactamase ratio; measured here: 460 nm blue channel
Method in brief: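 Beta-lactamase reporter under a cAMP responsive element in CHO cells; compounds tested in titration series against EC10 NKH 477, 3 h at 37 °C. Read-out: CCF4 FRET ratio 460nm/530nm (excitation 405nm) giving %Activity, fitted to AC50.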

SMILES	AC50
CC(C)CNC(=O)c1cc(-c2ccco2)on1	0.00398 µM [falling, full curve, poor fit]
CCCc1cc(C(=O)Nc2sc(C)c(C)c2C(=O)OCC)no1	1.26 µM [rising, full curve]
CN(Cc1ccco1)c1nc(-c2cccc(C#N)c2)nc2ccccc12	7.94 µM [rising, partial curve]
c1ccc(-n2nnnc2NCCc2c[nH]c3ccccc23)cc1	0.0794 µM [falling, full curve, poor fit]
COCCn1c(=O)c(-c2cn(C)c3ccccc23)nc2cnc(OCc3ccccc3)nc21	12.6 µM [rising, partial curve]
CCCC(=O)Nc1nc2ccc(S(N)(=O)=O)cc2s1	15.8 µM [rising, single point]
CCOc1ccccc1N(CC(=O)Nc1ccc(C)cc1)S(C)(=O)=O	0.000501 µM [rising, full curve]
C/C(N)=C(/C#N)C(=O)COc1ncnc2ccc(Br)cc12	3.16 µM [falling, full curve, poor fit]
CCc1nc(Nc2ccc3nccnc3c2)c2oc3ccccc3c2n1	0.501 µM [rising, full curve]
Cc1cc(C)nc(SCC(=O)Nc2ncc3c(n2)CC(C)(C)CC3=O)n1	3.16 µM [rising, single point]
O=C(CSc1nnc2scc(-c3ccccc3)n12)NCc1ccc2c(c1)OCO2	10 µM [rising, single point]
CC(C)(C)[Si](C)(C)c1c2c(nc3ccc(OCc4ccccc4)cc13)-c1cccc(=O)n1C2	12.6 µM [rising, partial curve]
Cc1ccc2cc3cc(C(=O)NCc4ccc5c(c4)OCO5)oc3nc2c1	0.00316 µM [falling, full curve, poor fit]
CCOC(=O)CNC(=O)c1cn(CC)c(=O)c2cc(OC)c(OC)cc12	6.31 µM [rising, partial curve]
COCCn1c(=O)c(-c2ccc(F)cc2)nc2cncnc21	15.8 µM [rising, partial curve]
CCOc1ccc(NC(=O)c2nnn(CC(=O)Nc3ccccc3OC)c2N)cc1	0.794 µM [falling, partial curve, poor fit]
O=C(CSc1nc(Nc2ccccc2)nc(N2CCOCC2)n1)N1CCCC1	15.8 µM [rising, single point]
CSC1=C(C#N)C(c2ccc(Cl)cc2)C2=C(CC(C)(C)CC2=O)N1 (stereo not drawn)	0.631 µM [rising, partial curve]
Cn1c(=O)cc(SCC(=O)NCc2cccnc2)c2ccccc21	10 µM [rising, single point]
CCN1CCN(C(CNC(=O)c2ccc3c(c2)OCO3)c2cccnc2)CC1 (stereo not drawn)	7.94 µM [rising, partial curve]
Cc1cc2cc(CN(CCCO)S(=O)(=O)c3cccc4nsnc34)c(=O)[nH]c2cc1C	25.1 µM [rising, single point]
CN(C)CCSc1nc(N)c2c3c(sc2n1)COC(C)(C)C3	12.6 µM [rising, partial curve]

SMILES	AC50
COc1cccc(C(=O)Nc2c3c(nn2-c2ccccc2C)CS(=O)C3)c1OC (stereo not drawn)	12.6 µM [rising, single point]
CN(C)C(=O)c1ccc(-c2nc(N(C)C)c3ccccc3n2)cc1	7.94 µM [rising, partial curve]
CSc1nc2c(c(=O)n1C)SC(C)C2 (stereo not drawn)	12.6 µM [rising, single point]
Cn1cc(-c2nc3cnc(Oc4ccccc4)nc3n(Cc3cccs3)c2=O)c2ccccc21	1 µM [rising, partial curve]
Cc1cc(NC(=O)COc2ccc3oc4ccccc4c3c2)no1	5.01 µM [falling, single point]
CCOC(=O)C(NC(=O)CC)(Nc1sc2c(c1C(=O)OC)CCN(C)C2)C(F)(F)F (stereo not drawn)	0.02 µM [rising, full curve]
Cc1cc2nc(-c3ccco3)cc(C(F)(F)F)n2n1	12.6 µM [rising, partial curve]
COc1cc(-c2nnc(CSc3nc4ccccc4s3)o2)cc(OC)c1OC	2 µM [rising, full curve]
Nc1c(C(=O)NCCN2CCOCC2)c2nc3ccccc3nc2n1CCc1ccccc1	12.6 µM [rising, partial curve]
COc1cccc(C2=NOC(C(=O)Nc3ccc(OC)c(OC)c3)C2)c1 (stereo not drawn)	12.6 µM [rising, partial curve]
O=C(CSc1ccc(-c2ccc(F)cc2)nn1)N1CCCCC1	0.398 µM [falling, full curve, poor fit]
CN(C)CCCc1c2ccccc2nc2ccc(Cl)cc12	3.98 µM [rising, single point]
Cc1ccc(C(=O)CSc2nc3ccccc3c(=O)n2N)o1	6.31 µM [rising, partial curve]
COc1ncc2nc(C)c(=O)n(C[C@H]3CCCO3)c2n1	12.6 µM [rising, partial curve]
CCC(=O)n1nc(-c2cccnc2)nc1NCc1ccc(OC)cc1	0.00501 µM [falling, full curve, poor fit]
Cc1c(OC(=O)CNC(=O)OC(C)(C)C)ccc2c3c(c(=O)oc12)CCC3	12.6 µM [rising, single point]
Cc1cc2c(c(C)nn2-c2ccccc2)c(=O)o1	10 µM [rising, partial curve]
COCCn1c(=O)c(-c2ccc(Cl)cc2)nc2cnc(N3CCNCC3)nc21	2 µM [rising, full curve]
COc1ccc(S(=O)(=O)N(CCCN2CCCC2=O)Cc2cc3cc(C)c(C)cc3[nH]c2=O)cc1	10 µM [rising, partial curve]
O=C(Nc1ccc2c(c1)OCO2)C1CCN(C(=O)CSc2ncnc3ccccc23)CC1	1.58 µM [falling, full curve]
COC(=O)c1cc2c(C)nn(-c3ccccc3)c2s1	12.6 µM [rising, partial curve]

A draw from above in order of molecular weight, descending:
SMILES	AC50
CCC(=O)n1nc(-c2cccnc2)nc1NCc1ccc(OC)cc1	0.00501 µM [falling, full curve, poor fit]
COc1ncc2nc(C)c(=O)n(C[C@H]3CCCO3)c2n1	12.6 µM [rising, partial curve]
Cc1cc2nc(-c3ccco3)cc(C(F)(F)F)n2n1	12.6 µM [rising, partial curve]
